Laboratory results: PMC9365671
No constants are given. Whether binding was seen depends on the method and setting. Some entries that bind do so weakly or less than the wild type.

Molecular target: T1, full-length human KIF5A-mScarlet-StrepII (human), Q12840
T1 chain: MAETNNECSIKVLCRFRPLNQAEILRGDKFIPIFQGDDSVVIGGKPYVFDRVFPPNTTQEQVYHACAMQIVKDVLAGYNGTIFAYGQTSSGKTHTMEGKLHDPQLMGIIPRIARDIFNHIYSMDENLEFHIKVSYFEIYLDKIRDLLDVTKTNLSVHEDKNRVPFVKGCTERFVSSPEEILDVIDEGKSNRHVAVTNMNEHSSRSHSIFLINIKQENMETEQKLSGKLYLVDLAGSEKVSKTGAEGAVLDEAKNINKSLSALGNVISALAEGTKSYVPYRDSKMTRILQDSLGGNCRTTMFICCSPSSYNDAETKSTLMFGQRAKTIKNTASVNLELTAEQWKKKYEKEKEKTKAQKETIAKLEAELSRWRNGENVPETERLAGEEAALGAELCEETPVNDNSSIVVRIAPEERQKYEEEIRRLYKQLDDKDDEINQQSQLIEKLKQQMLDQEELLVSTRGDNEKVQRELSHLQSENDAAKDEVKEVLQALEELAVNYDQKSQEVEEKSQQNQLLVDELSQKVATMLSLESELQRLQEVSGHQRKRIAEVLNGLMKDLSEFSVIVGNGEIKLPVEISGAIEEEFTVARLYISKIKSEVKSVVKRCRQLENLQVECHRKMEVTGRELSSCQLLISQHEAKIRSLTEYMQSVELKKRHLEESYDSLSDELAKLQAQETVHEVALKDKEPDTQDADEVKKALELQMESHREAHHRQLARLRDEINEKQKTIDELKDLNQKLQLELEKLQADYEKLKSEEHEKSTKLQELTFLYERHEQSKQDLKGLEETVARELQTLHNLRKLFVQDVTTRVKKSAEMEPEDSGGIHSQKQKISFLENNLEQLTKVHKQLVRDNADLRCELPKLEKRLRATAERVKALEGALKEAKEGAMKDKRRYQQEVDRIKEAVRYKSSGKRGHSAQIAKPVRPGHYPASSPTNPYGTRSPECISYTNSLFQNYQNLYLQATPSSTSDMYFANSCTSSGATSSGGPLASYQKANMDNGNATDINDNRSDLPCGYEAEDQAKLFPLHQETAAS
Assay: SEC-MALS; KIF5-KLC1 complexes co-expressed in Sf9 and co-purified; BioSep SEC-s4000 column, GF150 buffer (25 mM HEPES-KOH, 150 mM KCl, 2 mM MgCl2); both purified
Conditions: remark: other sources report otherwise

binding: binds
B1: full-length human KIF5A-mScarlet-StrepII, Q12840 1-1032 (natural protein)
chain: MAETNNECSIKVLCRFRPLNQAEILRGDKFIPIFQGDDSVVIGGKPYVFDRVFPPNTTQEQVYHACAMQIVKDVLAGYNGTIFAYGQTSSGKTHTMEGKLHDPQLMGIIPRIARDIFNHIYSMDENLEFHIKVSYFEIYLDKIRDLLDVTKTNLSVHEDKNRVPFVKGCTERFVSSPEEILDVIDEGKSNRHVAVTNMNEHSSRSHSIFLINIKQENMETEQKLSGKLYLVDLAGSEKVSKTGAEGAVLDEAKNINKSLSALGNVISALAEGTKSYVPYRDSKMTRILQDSLGGNCRTTMFICCSPSSYNDAETKSTLMFGQRAKTIKNTASVNLELTAEQWKKKYEKEKEKTKAQKETIAKLEAELSRWRNGENVPETERLAGEEAALGAELCEETPVNDNSSIVVRIAPEERQKYEEEIRRLYKQLDDKDDEINQQSQLIEKLKQQMLDQEELLVSTRGDNEKVQRELSHLQSENDAAKDEVKEVLQALEELAVNYDQKSQEVEEKSQQNQLLVDELSQKVATMLSLESELQRLQEVSGHQRKRIAEVLNGLMKDLSEFSVIVGNGEIKLPVEISGAIEEEFTVARLYISKIKSEVKSVVKRCRQLENLQVECHRKMEVTGRELSSCQLLISQHEAKIRSLTEYMQSVELKKRHLEESYDSLSDELAKLQAQETVHEVALKDKEPDTQDADEVKKALELQMESHREAHHRQLARLRDEINEKQKTIDELKDLNQKLQLELEKLQADYEKLKSEEHEKSTKLQELTFLYERHEQSKQDLKGLEETVARELQTLHNLRKLFVQDVTTRVKKSAEMEPEDSGGIHSQKQKISFLENNLEQLTKVHKQLVRDNADLRCELPKLEKRLRATAERVKALEGALKEAKEGAMKDKRRYQQEVDRIKEAVRYKSSGKRGHSAQIAKPVRPGHYPASSPTNPYGTRSPECISYTNSLFQNYQNLYLQATPSSTSDMYFANSCTSSGATSSGGPLASYQKANMDNGNATDINDNRSDLPCGYEAEDQAKLFPLHQETAAS
